From paper doi:10.1101/2020.03.09.983338
These are yes or no findings as the source states them, for the method shown. Binding seen in cells or lysates may run through a third protein. Some binding calls cover weakened binding; strength is not graded here. Sequences can lack the tags named with a protein.

Sequences of proteins named here, by UniProt entry; tags and fusion partners are left off.
UniProt Q9Y3Z3: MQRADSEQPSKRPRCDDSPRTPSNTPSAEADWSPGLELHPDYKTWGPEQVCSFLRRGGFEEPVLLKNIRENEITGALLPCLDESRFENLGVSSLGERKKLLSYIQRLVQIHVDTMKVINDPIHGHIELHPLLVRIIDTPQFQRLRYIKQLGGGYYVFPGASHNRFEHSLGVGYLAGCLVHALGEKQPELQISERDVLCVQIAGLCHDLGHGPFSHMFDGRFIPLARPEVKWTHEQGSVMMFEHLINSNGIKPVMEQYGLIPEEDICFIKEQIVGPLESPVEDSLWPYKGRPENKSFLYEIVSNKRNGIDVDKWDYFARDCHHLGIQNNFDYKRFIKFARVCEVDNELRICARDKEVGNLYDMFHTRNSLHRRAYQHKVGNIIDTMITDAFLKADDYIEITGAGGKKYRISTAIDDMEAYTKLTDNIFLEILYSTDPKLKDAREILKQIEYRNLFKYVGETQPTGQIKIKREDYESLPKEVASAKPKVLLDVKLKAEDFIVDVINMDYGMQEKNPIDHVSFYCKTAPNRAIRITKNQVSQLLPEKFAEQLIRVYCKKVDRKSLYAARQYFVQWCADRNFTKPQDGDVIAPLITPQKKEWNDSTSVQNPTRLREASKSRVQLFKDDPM

T1: HA-OGT (O-GlcNAc transferase) (UniProt O15294)
T1 sequence: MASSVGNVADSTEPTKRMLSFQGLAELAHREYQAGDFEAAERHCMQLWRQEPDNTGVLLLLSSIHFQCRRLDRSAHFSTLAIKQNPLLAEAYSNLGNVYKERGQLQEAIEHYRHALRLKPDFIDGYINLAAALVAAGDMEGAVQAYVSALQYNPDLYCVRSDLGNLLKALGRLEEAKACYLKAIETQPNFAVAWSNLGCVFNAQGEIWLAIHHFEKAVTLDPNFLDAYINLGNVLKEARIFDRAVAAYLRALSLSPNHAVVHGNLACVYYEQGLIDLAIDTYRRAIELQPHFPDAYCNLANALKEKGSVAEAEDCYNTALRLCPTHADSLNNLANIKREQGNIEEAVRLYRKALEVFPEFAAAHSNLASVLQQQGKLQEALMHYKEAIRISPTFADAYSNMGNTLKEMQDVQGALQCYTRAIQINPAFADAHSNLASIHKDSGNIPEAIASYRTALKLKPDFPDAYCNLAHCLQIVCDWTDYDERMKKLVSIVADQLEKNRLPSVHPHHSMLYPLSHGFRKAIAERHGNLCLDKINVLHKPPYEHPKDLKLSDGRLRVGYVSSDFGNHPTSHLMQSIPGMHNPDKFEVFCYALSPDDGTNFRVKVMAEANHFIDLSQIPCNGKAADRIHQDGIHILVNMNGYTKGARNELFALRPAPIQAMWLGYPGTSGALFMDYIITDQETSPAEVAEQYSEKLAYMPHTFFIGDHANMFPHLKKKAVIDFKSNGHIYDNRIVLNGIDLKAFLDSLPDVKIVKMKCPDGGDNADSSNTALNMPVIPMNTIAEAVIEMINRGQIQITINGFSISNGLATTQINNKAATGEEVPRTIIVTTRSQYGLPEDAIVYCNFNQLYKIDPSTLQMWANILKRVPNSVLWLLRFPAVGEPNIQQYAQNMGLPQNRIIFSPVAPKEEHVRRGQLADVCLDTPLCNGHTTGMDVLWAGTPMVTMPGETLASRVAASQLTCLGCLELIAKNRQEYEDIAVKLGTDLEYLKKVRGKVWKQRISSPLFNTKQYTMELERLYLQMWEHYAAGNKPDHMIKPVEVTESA


Tests used:
[1] = target: T1, HA-OGT (O-GlcNAc transferase); test: co-IP
[2] = target: HA-SAMHD1 (sterile alpha motif and histidine/aspartic acid domain-containing protein 1) (UniProt Q9Y3Z3); test: co-IP

Molecule | binding [1] | binding [2]
Flag-SAMHD1 (from UniProt Q9Y3Z3 1-626) | binds | 
Flag-OGT (O-GlcNAc transferase) (enzyme, UniProt O15294 1-1046) MASSVGNVADSTEPTKRMLSFQGLAELAHREYQAGDFEAAERHCMQLWRQEPDNTGVLLLLSSIHFQCRRLDRSAHFSTLAIKQNPLLAEAYSNLGNVYKERGQLQEAIEHYRHALRLKPDFIDGYINLAAALVAAGDMEGAVQAYVSALQYNPDLYCVRSDLGNLLKALGRLEEAKACYLKAIETQPNFAVAWSNLGCVFNAQGEIWLAIHHFEKAVTLDPNFLDAYINLGNVLKEARIFDRAVAAYLRALSLSPNHAVVHGNLACVYYEQGLIDLAIDTYRRAIELQPHFPDAYCNLANALKEKGSVAEAEDCYNTALRLCPTHADSLNNLANIKREQGNIEEAVRLYRKALEVFPEFAAAHSNLASVLQQQGKLQEALMHYKEAIRISPTFADAYSNMGNTLKEMQDVQGALQCYTRAIQINPAFADAHSNLASIHKDSGNIPEAIASYRTALKLKPDFPDAYCNLAHCLQIVCDWTDYDERMKKLVSIVADQLEKNRLPSVHPHHSMLYPLSHGFRKAIAERHGNLCLDKINVLHKPPYEHPKDLKLSDGRLRVGYVSSDFGNHPTSHLMQSIPGMHNPDKFEVFCYALSPDDGTNFRVKVMAEANHFIDLSQIPCNGKAADRIHQDGIHILVNMNGYTKGARNELFALRPAPIQAMWLGYPGTSGALFMDYIITDQETSPAEVAEQYSEKLAYMPHTFFIGDHANMFPHLKKKAVIDFKSNGHIYDNRIVLNGIDLKAFLDSLPDVKIVKMKCPDGGDNADSSNTALNMPVIPMNTIAEAVIEMINRGQIQITINGFSISNGLATTQINNKAATGEEVPRTIIVTTRSQYGLPEDAIVYCNFNQLYKIDPSTLQMWANILKRVPNSVLWLLRFPAVGEPNIQQYAQNMGLPQNRIIFSPVAPKEEHVRRGQLADVCLDTPLCNGHTTGMDVLWAGTPMVTMPGETLASRVAASQLTCLGCLELIAKNRQEYEDIAVKLGTDLEYLKKVRGKVWKQRISSPLFNTKQYTMELERLYLQMWEHYAAGNKPDHMIKPVEVTESA |  | binds
